The source of these data is PubChem BioAssay AID2685 (National Center for Advancing Translational Sciences (NCATS), 2010).

The list shows a part of the results. The main result of the screen is listed elsewhere. These columns were measured beside it and carry no call. The list favours compounds with an active or inconclusive main result. Potencies come from curve fits of mixed quality, noted in brackets.

The nature of this experiment: qHTS Assay for Lipid Storage Modulators in Drosophila S3 Cells.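 As to cell number change: cells counted by Cell Tracker Red CMTPX staining in the red channel.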 The settings on record: BODIPY lipid droplet fluorescence, 18-24 h; for cell number change: measured here: cell count max response, cells fed with added oleic acid. In short, it runs like this: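 Drosophila S3 cells got compounds at several concentrations plus oleic acid (400 uM solution). Laser-scanning cytometry with 488 nm excitation read lipid droplets at 500-530 nm and cells at 575-640 nm. Percent activity was relative to 20 uM Triacsin C.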

The mark [1] stands for this setting: measured here: cell number channel AC50, cells fed with added oleic acid.
[2] abbreviates: measured here: lipid fluorescence (Fed channel) AC50, cells fed with added oleic acid.

As for `C=CCc1cc(/C=N\NC(=O)CSc2nnc(CCCc3ccc(OC)c(C)c3)o2)cc(OC)c1O`, the cell number change was -7.56%.
Regarding `COC(=O)c1cc(OC)c(OC)cc1NC(=S)N1CCC(C(N)=O)CC1`, the cell number change is 37.2%. Further, under setting [1], the AC50 is 0.731 µM [rising, full curve]. Besides, the AC50 under setting [2] is 1.64 µM [rising, partial curve].
Consider `Cc1cc(N2CCN(C(=O)c3ccco3)CC2)n2nc(C)c(-c3ccccc3)c2n1`, for which the cell number change was -32.2%. Also, under setting [1], the AC50 is 8.2 µM [falling, single point].
Consider `CSCCC(NC(=O)COc1ccccc1)C(=O)OCCOc1ccc(F)cc1` (configuration not stated), for which the AC50 under setting [1] was 7.31 µM [rising, partial curve].
As for `COc1ccc(C(CNC(=O)COc2ccc(F)cc2Br)N2CCCC2)cc1` (configuration not stated), the cell number change came out at 40.5%. The AC50 under setting [1] was 29.1 µM [rising, single point].
Regarding `O=c1cc(-c2ccccc2)nc(SCCOc2ccccc2Cl)[nH]1`, the cell number change stood at 0.596%. In addition, under setting [2], the AC50 was 0.326 µM [rising, single point].
Consider `CCOc1ccc(-n2cnnn2)cc1S(=O)(=O)NC1CC1`, for which the cell number change worked out at 1.86%. The AC50 under setting [2] was 10.3 µM [rising, partial curve].
Take `Cc1[nH]n(-c2ccccc2)c(=O)c1N=Nc1ccc2c(c1)OCCO2`: the cell number change was -64.5%. Under setting [1], the AC50 is 29.1 µM [falling, single point].
In the case of `COc1ccc([N+](=O)[O-])cc1/C=N/NC(=O)c1nonc1N`, the cell number change was 33.5%. Also, the AC50 under setting [1] is 0.00461 µM [rising, full curve].
Turning to `CC1CCc2c(sc(NC(=O)c3ccc(N4C(=O)CCC4=O)cc3)c2C(N)=O)C1` (configuration not stated), the cell number change was determined as 3.98%. For the same compound, under setting [2], the AC50 was 7.31 µM [rising, single point].
On to `CCOC(=O)c1cnn(CCOC(=O)c2cccc(F)c2)c1NC(=O)c1cccc(F)c1`, for which the cell number change is -40.1%. The AC50 under setting [1] is 20.6 µM [falling, single point]. The AC50 under setting [2] was 4.61 µM [falling, single point].
`C=CCNC(=O)c1oc2ccc(S(=O)(=O)N(CC)CC)cc2c1C`: the cell number change was -33.3%. Besides, the AC50 under setting [1] was 1.84 µM [falling, full curve]. In addition, under setting [2], the AC50 was 1.64 µM [falling, full curve, poor fit].
With `CCOC(=O)C(NCCCCl)c1ccccc1` (configuration not stated), the cell number change is -24.8%.
Consider `CN(C)S(=O)(=O)N1CCN(C(=O)N2CCCCC2)CC1`, for which the cell number change was -41.7%. Also, under setting [1], the AC50 was 14.6 µM [falling, partial curve].
For the compound `COc1cccc(C2c3[nH]c4ccccc4c3C[C@H]3C(=O)N(c4ccccc4C(=O)N4CCCC4C(=O)O)C(=O)N23)c1` (some centres not stated), the cell number change turned out to be 15.9%.
Turning to `CCCCc1ccc(NC(=O)CC(C)(C)C)cc1`, the cell number change was -0.344%. Also, the AC50 under setting [2] was 32.6 µM [falling, single point].
Take `CC(C)COC(=O)COc1cc(Cl)c(Cl)cc1Cl`: the cell number change was determined as 6.73%.
As to `CCCCn1c(N)c(N(CC(C)C)C(=O)C2CCCN(C(=O)c3ccc(Cl)cc3)C2)c(=O)[nH]c1=O` (configuration not stated), the cell number change is -3.31%. The AC50 under setting [2] is 6.51 µM [rising, single point].
In the case of `CCN(C(=O)c1ccc2c(=O)n3c(nc2c1)CCCCC3)c1ccccc1C`, the cell number change was -18.7%. Besides, under setting [1], the AC50 is 1.64 µM [falling, partial curve, poor fit].
On to `O=S(=O)(NCC1(N2CCOCC2)CCCCC1)c1ccccc1Cl`, for which the AC50 under setting [2] is 0.82 µM [falling, single point].
Take `CC(C)n1nc(C(=O)OCC(=O)N2CC(=O)Nc3ccccc32)c2ccccc2c1=O`: the cell number change is -36.9%.
`CCOC(=O)C1=C(C)C2C3C(=O)N(c4ccc(C)cc4C)C(=O)C3C1(C)C1C(=O)N(c3ccc(C)cc3C)C(=O)C21` (configuration not stated): the cell number change stood at 3.47%. Under setting [2], the AC50 was 3.66 µM [rising, single point].
For the compound `O=C(CC1S/C(=N/N=C2CCCCCC2)NC1=O)Nc1ccccc1F` (configuration not stated), the cell number change was -11.9%. Also, the AC50 under setting [2] was 0.58 µM [rising, single point].
As to `CN1C(=O)C(C)(C)c2cc(S(=O)(=O)N3CCC(C(=O)NCc4ccc(Cl)cc4)CC3)ccc21`, the cell number change stood at 8.06%.
For `Cc1cc(C(=O)CSc2nnc(-c3ccccc3)n2Cc2ccc3c(c2)OCO3)c(C)n1C`, the cell number change was -90.7%. In addition, the AC50 under setting [1] was 18.4 µM [falling, single point]. Further, the AC50 under setting [2] is 29.1 µM [falling, single point].
On to `CCCOc1ccc(/C=N/NC(=S)Nc2ccccc2[N+](=O)[O-])c(O)c1`, for which the cell number change was -20.7%. Moreover, the AC50 under setting [2] was 6.51 µM [rising, full curve].
In the case of `CN(C)S(=O)(=O)c1cccc(C(=O)Nc2ccc3c(c2)CCC3)c1`, the cell number change turned out to be 17.1%.
For the compound `Cc1ccc(Cc2cc(-c3ccc(C)cc3)n[nH]c2=O)cc1`, the cell number change stood at 7.07%. Besides, the AC50 under setting [2] was 0.00517 µM [falling, full curve, poor fit].
As to `CC1CC(C)CN(CCCNC(=O)c2ccc3nc(N4CCOCC4)sc3c2)C1` (configuration not stated), the cell number change stood at 23.1%.
As to `Cc1nnsc1NC(=O)OCC(C)(C)C`, the cell number change was -39.4%. Under setting [2], the AC50 is 11.6 µM [rising, single point].
As to `COCCN1Cc2cccc(C(=O)Nc3c(C)cccc3C)c2C1=O`, the AC50 under setting [1] was 1.3 µM [rising, partial curve] and the AC50 under setting [2] was 0.731 µM [rising, full curve].
Regarding `O=C1CCC(C(=O)N2CCC(CO)CC2)CN1Cc1ccc(Cl)cc1` (configuration not stated), the cell number change is 3.47%. Further, the AC50 under setting [2] was 1.16 µM [rising, full curve, poor fit].
Take `Cc1c(Cl)cccc1-n1c(SCC(=O)N2CCC(C(=O)O)CC2)nc2ccccc2c1=O`: the cell number change is -11.5%.
Regarding `CCOC(=O)COc1ccc(C2NC(C(=O)O)CS2)cc1` (configuration not stated), the cell number change is -177%. In addition, the AC50 under setting [1] is 29.1 µM [falling, partial curve]. Moreover, the AC50 under setting [2] is 23.1 µM [falling, partial curve].
Turning to `COCCOc1ccc(C(F)(F)F)cc1NC(=O)CN1C(=O)NC(C)(c2ccc3c(c2)OCO3)C1=O` (configuration not stated), the cell number change worked out at 13.5%.
Take `O=C(NC(=S)Nc1cccnc1)c1cccc(Br)c1`: the cell number change was -6.58%. In addition, under setting [1], the AC50 is 0.517 µM [falling, single point].
Turning to `COc1ccccc1C1C(C(=O)c2sc(C)nc2C)=C(O)C(=O)N1CCN1CCOCC1` (configuration not stated), the cell number change turned out to be 5.1%.
For `O=C(C[n+]1cccc2ccccc21)c1ccc(NC(=O)c2ccccc2)cc1`, the cell number change was -8.71%. The AC50 under setting [1] is 1.84 µM [falling, partial curve, poor fit]. Further, the AC50 under setting [2] is 0.00461 µM [falling, full curve, poor fit].
Turning to `CNC(=O)CN(c1cc(C)ccc1C)S(C)(=O)=O`, the cell number change was -3.43%.
`COc1ccc(NC(=O)C2CCN(C(=O)c3cccs3)CC2)cc1OC`: the cell number change was 55.7%. Under setting [1], the AC50 is 10.3 µM [rising, partial curve, poor fit].
